In PubChem BioAssay AID1671190 (National Center for Advancing Translational Sciences (NCATS), 2021):
Values joined by “and” are separate entries in the source; they are usually repeats but may differ in a detail not shown here. Identical values can stand only once. Among all 580,000 compounds or so, about 6,100 (1.1%) were called active. The inconclusive results got no clear call from the source; some entries with a clear call stand among them for comparison. Calls come from the whole dose curve; as a rule, active = well fitted inhibition curve with a large enough effect; inconclusive = small, poorly fitted or top-dose-only effect, or another doubt; inactive = no such curve, though single readings can be large or run the other way. Potencies of inconclusive entries are doubtful fits and often do not repeat.

The chains behind the UniProt entries cited, without tags or fusion partners.
UniProt P18054, whole entry, looked up: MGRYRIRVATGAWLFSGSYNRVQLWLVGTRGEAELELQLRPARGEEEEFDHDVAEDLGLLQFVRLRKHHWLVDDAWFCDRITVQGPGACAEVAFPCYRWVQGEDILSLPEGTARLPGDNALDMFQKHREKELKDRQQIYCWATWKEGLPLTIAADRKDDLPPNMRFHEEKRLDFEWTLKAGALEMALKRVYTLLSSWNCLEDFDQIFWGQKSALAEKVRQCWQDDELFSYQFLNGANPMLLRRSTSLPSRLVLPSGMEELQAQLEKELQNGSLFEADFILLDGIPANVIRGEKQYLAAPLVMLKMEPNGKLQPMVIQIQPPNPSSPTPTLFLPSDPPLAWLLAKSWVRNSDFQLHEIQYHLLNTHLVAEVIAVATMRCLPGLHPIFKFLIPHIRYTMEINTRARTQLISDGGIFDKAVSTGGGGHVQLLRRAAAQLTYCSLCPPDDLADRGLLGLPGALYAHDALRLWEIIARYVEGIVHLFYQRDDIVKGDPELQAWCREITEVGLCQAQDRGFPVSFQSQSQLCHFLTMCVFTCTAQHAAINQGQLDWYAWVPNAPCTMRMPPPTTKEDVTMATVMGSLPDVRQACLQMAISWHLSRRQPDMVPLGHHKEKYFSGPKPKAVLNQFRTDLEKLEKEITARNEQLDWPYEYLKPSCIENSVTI

Target: Polyunsaturated fatty acid lipoxygenase ALOX12 (Homo sapiens) (UniProt P18054)
Experiment: Primary qHTS assay for inhibitors of human arachidonate 12S-lipoxygenase (ALOX12): Round 2
Details: purified 12hLO, xylenol orange hydroperoxide absorbance; activity change, negative = inhibition: at 108 µM (top of the series) unless noted
In short: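 Purified human 12hLO at 150 nM in 25 mM Hepes, 0.01% Triton X-100, pH 7.0, preincubated 15 min at room temperature with compound. Reaction started with 40 uM arachidonic acid, 30 min at room temperature. Hydroperoxide measured by Fe-xylenol orange, 573/405 nm absorbance ratio.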
% is set by controls: 0 for no effect and ±100 for the full control effect; potency is the fitted concentration of half-maximal effect.

| SMILES | Potency | activity change, negative = inhibition |
| --- | --- | --- |
| COc1cc(C(C)=O)ccc1SCC(=O)O | inconclusive: 50.1 µM [inhibitor, partial curve, poor fit] | – |
| NC(=O)c1ncn([C@@H]2O[C@H](CO)[C@@H](O)[C@H]2O)c1O | inconclusive: 39.8 µM [inhibitor, partial curve, poor fit] | – |
| CCOC(=O)c1cc(NC(=O)c2ccc(Cl)cc2)c(=O)n2c1oc1ccccc12 | inconclusive: 63.1 µM [inhibitor, partial curve, poor fit] | – |
| COc1ccc(Nc2c3c(nc4ccc(NC(=O)/C=C/c5cccc(OC)c5OC)cc24)CCCC3)cc1OC | inconclusive: 44.7 µM [inhibitor, partial curve, poor fit] | – |
| O=C(Nc1ccccc1-n1cncn1)C1CC(=O)N(c2ccccc2Br)C1 (centres undefined) | – | inconclusive: -30.2% [inhibitor] |
| CC(=O)N(c1nc(C)c(C(=O)Nc2ccc3cc[nH]c3c2)s1)C1CC1 | – | inactive: 59.5% |
| C[C@@H]1CC[C@]2(C(=O)O[C@@H]3O[C@H](CO)[C@@H](O)[C@H](O)[C@H]3O)CC[C@]3(C)C(=CCC4[C@@]5(C)C[C@@H](O)[C@H](O)[C@@](C)(C(=O)O[C@@H]6[C@H](O)C[C@@]7(C)C(CC[C@]8(C)C7CC=C7[C@H]9[C@](C(=O)O[C@@H]%10O[C@H](CO)[C@@H](O)[C@H](O)[C@H]%10O)(CC[C@@H](C)[C@@]9(C)O)CC[C@]78C)[C@@]6(CO)C(=O)O)C5CC[C@]43C)[C@@H]2[C@]1(C)O (some centres undefined) | inconclusive: 89.1 µM [inhibitor, single point] | – |
| COc1ccccc1NS(=O)(=O)c1cccc(C(=O)N2CCc3sccc3C2)c1 | inconclusive: 56.2 µM [inhibitor, partial curve, poor fit] | – |
| CCc1nc(SCC(=O)c2cccc([N+](=O)[O-])c2)n[nH]1 | – | inactive: -31.6% |
| Cc1ccc2[nH]cc(CCn3ccc4c(cnc5ncnn54)c3=O)c2c1 | inconclusive: 50.1 µM [inhibitor, partial curve, poor fit] | – |
| COc1cc(C2NCC(c3ccc(Cl)cc3Cl)c3c2[nH]c2ccccc32)cc(OC)c1OC (centres undefined) | active: 28.2 µM | – |
| CSc1ccccc1OCc1cc(C(=O)N(C)Cc2ccc(C)o2)no1 | inconclusive: 100 µM [inhibitor, single point] | – |
| Cc1ccc(OC2(C(=O)N(C)Cc3n[nH]c4c3CCCC4)CCNCC2)cc1 | inconclusive: 28.2 µM [inhibitor, full curve, poor fit] | – |
| O=[N+]([O-])c1cc(S(=O)(=O)Nc2ccccc2)ccc1N/N=C/c1c(F)c(F)c(F)c(F)c1F | – | inactive: -0.257% |
| S=C1NCCc2ccccc2C1c1ccccc1Cl (centres undefined) | inconclusive: 31.6 µM [inhibitor, partial curve, poor fit] | – |
| CCc1nc(SCc2cc(=O)c3cc(C)ccc3[nH]2)n[nH]1 | – | inactive: -26.5% |
| Cc1ccc(/C=N/NC(=O)c2c(-c3ccccc3)noc2C)c(O)c1 | inconclusive: 44.7 µM [inhibitor, single point] | – |
| CC1CCCCN1Cc1nc2ccccc2c(=O)[nH]1 (centres undefined) | inconclusive: 2.51 µM [inhibitor, full curve, poor fit] | – |
| COc1ccc(C(=O)N2CCC3(CC2)NC(=O)N(c2cccc(F)c2)N3)c(OC)c1 | active: 1.26 µM | – |
| COc1ccc(-n2c(C)cc(C(=O)CSc3nnc(-c4cccs4)o3)c2C)cc1 | inconclusive: 50.1 µM [inhibitor, partial curve, poor fit] | – |
| COCCNC(=O)c1cc(-c2ccco2)nc2ccccc12 | inconclusive: 141 µM [inhibitor, partial curve, poor fit] | – |
| CCn1c2ccccc2c2cc(N)ccc21 | inconclusive: 22.4 µM [inhibitor, single point] | – |

| SMILES | Potency | activity change, negative = inhibition |
| --- | --- | --- |
| O=C(O)c1cc(C(=O)O)cc(N2C(=O)c3ccccc3C2=O)c1 | – | inactive: 1.01% |
| CC(C)C(NC(=O)OCc1ccccc1)C(=O)NC(Cc1c[nH]c2ccccc12)C(=O)O (centres undefined) | inconclusive: 31.6 µM [inhibitor, partial curve, poor fit] | – |
| CCCNC(=O)C[C@@H]1CC[C@H]2NC[C@H](O)COC[C@@H]2O1 | inconclusive: 39.8 µM [inhibitor, partial curve, poor fit] | – |
| N#C/C(=C(/O)CN1CCN(c2ccccc2F)CC1)c1nc(-c2ccc(Cl)cc2)cs1 | – | inactive: -15.6% [at 57.4 µM] |
| COc1cccc(NC(=O)NC[C@H]2O[C@@H](CO)[C@@H](O)[C@H]2N(C)CCc2ccccc2)c1 | inconclusive: 8.91 µM [inhibitor, full curve] | – |
| Cc1ccc(N=Cc2ccc(N(C)C)cc2)cc1 | – | inactive: -20.5% |
| COc1ccc(-c2ccnc3nc(C4CCC4)nn23)c(F)c1 | – | inactive: 35.3% |
| COc1cc(NS(=O)(=O)c2ccccc2Cl)c(C(=O)O)cc1OC | inconclusive: 35.5 µM [inhibitor, partial curve, poor fit] | – |
| O=C(Nc1ccc(N2CCOCC2)cc1)[C@H]1CN(Cc2ccccc2)C[C@H]1C(=O)O | – | inactive: 1.73% |
| COC(=O)c1sc(=S)n(-c2cc(Cl)ccc2C)c1N | inconclusive: 39.8 µM [inhibitor, partial curve, poor fit] | – |
| Cc1ccc(Cc2c(-c3ccc(F)cc3)nc3c(Cl)cc(C(F)(F)F)cn23)cc1 | inconclusive: 89.1 µM [inhibitor, single point] | – |
| CCc1cc2c(-c3ccccc3)cc(=O)oc2c2c1OCN(Cc1ccc(F)cc1)C2 | inconclusive: 35.5 µM [inhibitor, partial curve, poor fit] | – |
| O=C(CC[C@H]1O[C@@H](n2cnc3c(NC(=O)c4ccccc4)ncnc32)[C@H](O)[C@@H]1O)NCCCN1CCCC1=O | – | inactive: -28.8% |
| CC/C(O)=C1\C(=O)CC(c2ccccc2)CC1=NCCc1c(C)[nH]c2ccc(C)cc12 (centres undefined) | – | inactive: 1.97% [at 57.4 µM] |
| CSC1=C(C#N)C(c2ccccc2C)C(C#N)=C(N)N1 (centres undefined) | inconclusive: 56.2 µM [inhibitor, partial curve, poor fit] | – |
| COc1ccc(COC(=O)C2=C(C)NC(=O)NC2c2ccccc2OC(C)C)cc1 (centres undefined) | inconclusive: 126 µM [inhibitor, partial curve, poor fit] | – |
| CN(C(=S)Nc1ccc(SC(F)F)cc1)C(c1ccccc1)c1ccccc1 | – | inactive: 50.1% |
| COc1ccccc1-c1ccc(/C=C2/C=C(CC(C)C)OC2=O)o1 | inconclusive: 56.2 µM [inhibitor, partial curve, poor fit] | – |
| CN(C)C(=O)c1ccc(-c2nccc(N(C)Cc3ccco3)n2)cc1 | inconclusive: 6.31 µM [inhibitor, full curve, poor fit] | – |
| CS/C(=N\S(=O)(=O)c1cccs1)Nc1ccc(F)c(Cl)c1 | – | inactive: 14.1% |
| CC(C)c1nc2sc3c(=O)[nH]c(=S)[nH]c3c2c2c1CCCC2 | active: 25.1 µM | – |
| C=CCNC(=O)N[C@H]1CCN2C(=O)c3ccccc3NC(=O)[C@@H]2C1 | inconclusive: 44.7 µM [inhibitor, partial curve, poor fit] | – |

| SMILES | Potency | activity change, negative = inhibition |
| --- | --- | --- |
| O=C1CC[C@@H](S(=O)(=O)c2ccccc2)[C@H](c2ccccc2)N1Cc1ccccc1 | – | inactive: -1.93% |
| O=C(COc1ccc2c(-c3ccccc3)cc(=O)oc2c1)NCCN1CCOCC1 | inactive | – |
| Cc1nc(-c2cnccn2)n(CC(=O)Nc2ccc3c(c2)OCCO3)c(=O)c1C | – | inactive: 40.5% |
| Cc1ccc2sc(NNC(=O)c3ccc4c(c3)OCCO4)nc2c1C | inconclusive: 35.5 µM [inhibitor, single point] | – |
| CCC(=O)N1N=C(c2ccc(F)cc2)CC1c1ccc2nccnc2c1 (centres undefined) | – | inactive: -24.7% |
| CC(=O)c1ccc(OCC(=O)c2c(C)[nH]c3ccccc23)cc1 | inconclusive: 6.31 µM [inhibitor, full curve, poor fit] | – |
| COc1cc(OC)c(C(=O)OCC(=O)NC2CCCCCCC2)cc1OC | – | inactive: -6.2% |
| COCCN1C(=O)COc2ccccc2C1C(=O)Nc1c(C)cccc1C (centres undefined) | inconclusive: 17.8 µM [inhibitor, partial curve, poor fit] | – |
| Nn1c(Cc2cccc3ccccc23)n[nH]c1=S | inconclusive: 35.5 µM [inhibitor, full curve, poor fit] | – |
| CCCOc1ccc(C(=O)NNC(=S)NC(=O)c2cccs2)cc1 | inconclusive: 44.7 µM [inhibitor, partial curve, poor fit] | – |
| COc1ccccc1-c1n[nH]c(=S)n1Cc1ccccc1 | active: 28.2 µM | – |
| Cc1ccc(Nc2cc(C)c3c(O)cccc3n2)cc1C | inconclusive: 44.7 µM [inhibitor, partial curve, poor fit] | – |
| Cc1cnc(C(=O)N[C@@H]2CCC[C@@H]2C(=O)NCc2ccc(Cl)cc2)cn1 | inconclusive: 6.31 µM [inhibitor, partial curve] | – |
| CCCCc1noc(CN2CCc3cc(OC)c(OC)cc3C2CC(=O)OC)n1 (centres undefined) | – | inactive: -18.9% |
| COc1ccc2c(c1)C(=NNc1ccc(C(=O)O)cc1)c1cc(OC)ccc1-2 | – | inactive: 0% |
| COc1cccc(NC(=O)CN(C)C(=O)c2ccc(-c3ccccc3Cl)o2)c1 | inactive and inconclusive: 50.1 µM [inhibitor, partial curve, poor fit] | – |
| CCc1oc2ccccc2c1C(=O)c1cc(I)c(O)c(I)c1 | active: 12.8 µM | – |
| CN1CCC(NC(=O)c2ccc3c(c2)n(Cc2ccc(F)cc2)c(=O)c2ccnn23)CC1 | active: 20 µM | – |
| COc1ccc(-c2nc3cnc(OC)nc3n(-c3ccccc3)c2=O)cc1 | inconclusive: 70.8 µM [inhibitor, partial curve, poor fit] | – |
| COc1cc(NC(=O)C2C3C=CC(C3)C2C(=O)O)c(OC)cc1Cl (centres undefined) | inconclusive: 50.1 µM [inhibitor, partial curve, poor fit] | – |
